# Data as given in PubChem BioAssay AID1259254 (NCATS, 2017).
# Assay: 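Gene knock-downs that lead to re-replication, shown by excess G2 DNA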 (primary screen)
# Cells: human HCT116 colorectal cancer cells
# Knock-down reagent: single siRNA against human genes
# Duration: 3 days
# Read-out: 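Nuclei stained with Hoechst and imaged; cell-cycle phase assigned by DNA content; G2 share scaled per plate, non-targeting siRNA 0%, GMNN siRNA 100%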
# Scale: G2 robust z-score and G2 cells, % of GMNN control: higher = more G2 cells, more excess DNA replication
# Rule for the call: 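An siRNA counts as active if its G2 robust z-score lies at least 5 MADs above the screen median; here such calls match roughly 38% of GMNN control or more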
# This is an unselected part of about 59,000 deposited reagents. Over the whole deposit, about 1,550 (2.6%) got an active call. 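G2 share is only a proxy for re-replication; each gene was hit by three separate siRNAs, and active genes were retested.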 Entries without a mark were called inactive. Reagents against one gene are numbered here. Not all columns of the deposit are shown. Not stated in the record: the amount of reagent.
gene knocked down,reagent,G2 robust z-score,"G2 cells, % of GMNN control"
SLC16A10,1,0.0636,3.41
SLC16A10,2,1.37,12.6
SLC16A10,3,0.477,6.32
FAS,1,5.3 (active),40.3
FAS,2,-0.146,1.94
FAS,3,-0.887,-3.27
POP5,1,-1.33,-6.36
POP5,2,-0.867,-3.13
POP5,3,0.214,4.47
OR5T3,1,-0.0484,2.63
OR5T3,2,0.323,5.24
OR5T3,3,-0.805,-2.69
MMAB,1,-0.194,1.61
MMAB,2,1.62,14.4
MMAB,3,-0.867,-3.13
GRHL1,1,-0.686,-1.86
GRHL1,2,0.36,5.5
GRHL1,3,-1.34,-6.47
OR56A4,1,1.64,14.5
OR56A4,2,-0.226,1.38
OR56A4,3,-0.0117,2.88
EIF2S2P7,1,2.3,19.2
EIF2S2P7,2,-0.622,-1.41
EIF2S2P7,3,-0.639,-1.53
NPBWR2,1,1.28,12
NPBWR2,2,2.29,19.1
NPBWR2,3,0.415,5.89
NPAP1,1,2.81,22.7
NPAP1,2,0.786,8.49
NPAP1,3,-0.843,-2.96
PANK4,1,-0.707,-2
PANK4,2,-0.937,-3.63
PANK4,3,-0.469,-0.332
SLC25A41,1,1.64,14.5
SLC25A41,2,-0.722,-2.11
SLC25A41,3,4.99,38.1
LOC643441,1,-0.351,0.497
LOC643441,2,1.94,16.6
LOC643441,3,-0.71,-2.03
PLPP5,1,-0.0326,2.74
PLPP5,2,0.235,4.62
PLPP5,3,1.43,13
CNOT4,1,-0.633,-1.48
CNOT4,2,-0.213,1.47
CNOT4,3,-0.854,-3.04
AGPS,1,-0.72,-2.1
AGPS,2,-1.08,-4.64
AGPS,3,-1.23,-5.71
MBLAC1,1,0.217,4.49
MBLAC1,2,2.44,20.1
MBLAC1,3,0.565,6.94
DCST2,1,5.68 (active),43
DCST2,2,-0.305,0.821
DCST2,3,-0.61,-1.33
LINC01556,1,-0.338,0.587
LINC01556,2,-0.391,0.215
LINC01556,3,1.54,13.8
KLRC4,1,0.664,7.64
KLRC4,2,-0.865,-3.12
KLRC4,3,-0.722,-2.12
KCNT2,1,5.48 (active),41.6
KCNT2,2,-0.92,-3.51
KCNT2,3,2.95,23.7
DDX46,1,0.0544,3.35
DDX46,2,3.2,25.5
DDX46,3,0.108,3.72
IL4I1,1,-1.28,-6.03
IL4I1,2,-0.561,-0.979
IL4I1,3,-0.93,-3.57
NUAK1,1,-0.45,-0.197
NUAK1,2,-0.679,-1.81
NUAK1,3,-0.609,-1.31
ZNF740,1,-1.04,-4.37
ZNF740,2,-1.05,-4.4
ZNF740,3,-0.0511,2.61
MUC3A,1,-0.821,-2.81
MUC3A,2,0.583,7.07
MUC3A,3,-0.272,1.05
ADORA2B,1,0.74,8.18
ADORA2B,2,-0.756,-2.35
ADORA2B,3,-0.125,2.09
NXPH2,1,-0.0465,2.64
NXPH2,2,-0.457,-0.248
NXPH2,3,0.0473,3.3
ABR,1,1.16,11.1
ABR,2,-1.29,-6.11
ABR,3,-0.122,2.11

Part of the list above, set out differently.
CNOT4 #3 — G2 robust z-score: -0.854; G2 cells, % of GMNN control: -3.04
AGPS #1 — G2 robust z-score: -0.72; G2 cells, % of GMNN control: -2.1
AGPS #2 — G2 robust z-score: -1.08; G2 cells, % of GMNN control: -4.64
AGPS #3 — G2 robust z-score: -1.23; G2 cells, % of GMNN control: -5.71
MBLAC1 #1 — G2 robust z-score: 0.217; G2 cells, % of GMNN control: 4.49
MBLAC1 #2 — G2 robust z-score: 2.44; G2 cells, % of GMNN control: 20.1
MBLAC1 #3 — G2 robust z-score: 0.565; G2 cells, % of GMNN control: 6.94
DCST2 #1 — G2 robust z-score: 5.68 (active); G2 cells, % of GMNN control: 43
DCST2 #2 — G2 robust z-score: -0.305; G2 cells, % of GMNN control: 0.821
DCST2 #3 — G2 robust z-score: -0.61; G2 cells, % of GMNN control: -1.33
LINC01556 #1 — G2 robust z-score: -0.338; G2 cells, % of GMNN control: 0.587
LINC01556 #2 — G2 robust z-score: -0.391; G2 cells, % of GMNN control: 0.215
LINC01556 #3 — G2 robust z-score: 1.54; G2 cells, % of GMNN control: 13.8
KLRC4 #1 — G2 robust z-score: 0.664; G2 cells, % of GMNN control: 7.64
